Results reported in the supplement of paper PMC7666118.
The other results are listed elsewhere or left out.

The chains behind the UniProt entries cited, without tags or fusion partners. Where a name states a change or a piece, a line headed by the entry shows the natural chain unless it says otherwise.
UniProt P78312: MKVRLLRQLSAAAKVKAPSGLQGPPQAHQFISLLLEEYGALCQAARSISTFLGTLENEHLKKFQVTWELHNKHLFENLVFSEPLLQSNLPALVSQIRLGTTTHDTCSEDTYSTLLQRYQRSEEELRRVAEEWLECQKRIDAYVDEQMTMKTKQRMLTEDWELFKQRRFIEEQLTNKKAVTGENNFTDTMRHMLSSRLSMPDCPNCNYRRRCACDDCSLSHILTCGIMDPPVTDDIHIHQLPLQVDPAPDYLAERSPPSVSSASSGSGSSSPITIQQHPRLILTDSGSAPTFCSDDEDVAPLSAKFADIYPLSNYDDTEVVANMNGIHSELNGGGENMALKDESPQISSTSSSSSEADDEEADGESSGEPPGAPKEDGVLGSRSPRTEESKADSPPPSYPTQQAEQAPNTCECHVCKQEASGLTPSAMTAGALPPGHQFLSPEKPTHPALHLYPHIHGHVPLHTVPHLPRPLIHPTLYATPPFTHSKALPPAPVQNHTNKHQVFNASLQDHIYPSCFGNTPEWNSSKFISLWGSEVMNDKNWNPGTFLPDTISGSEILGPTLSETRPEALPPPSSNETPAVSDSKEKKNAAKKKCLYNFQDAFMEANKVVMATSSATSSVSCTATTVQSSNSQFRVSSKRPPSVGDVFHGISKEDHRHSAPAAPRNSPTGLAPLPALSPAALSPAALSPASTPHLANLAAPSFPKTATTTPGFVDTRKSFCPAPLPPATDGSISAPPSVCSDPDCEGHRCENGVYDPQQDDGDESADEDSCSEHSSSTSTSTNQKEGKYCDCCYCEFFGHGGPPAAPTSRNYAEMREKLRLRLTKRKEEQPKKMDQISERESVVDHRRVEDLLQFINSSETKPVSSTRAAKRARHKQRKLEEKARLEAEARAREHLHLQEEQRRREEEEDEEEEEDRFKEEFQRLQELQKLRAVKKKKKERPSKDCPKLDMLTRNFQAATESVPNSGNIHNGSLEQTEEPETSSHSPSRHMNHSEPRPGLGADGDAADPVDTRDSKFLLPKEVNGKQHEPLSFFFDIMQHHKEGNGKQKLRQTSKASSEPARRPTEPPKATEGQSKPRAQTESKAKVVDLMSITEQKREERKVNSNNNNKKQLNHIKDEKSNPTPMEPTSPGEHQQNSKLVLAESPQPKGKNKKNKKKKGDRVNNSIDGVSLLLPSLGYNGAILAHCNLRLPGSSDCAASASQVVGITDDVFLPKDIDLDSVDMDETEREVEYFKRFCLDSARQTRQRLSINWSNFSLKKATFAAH
UniProt Q9BPX6: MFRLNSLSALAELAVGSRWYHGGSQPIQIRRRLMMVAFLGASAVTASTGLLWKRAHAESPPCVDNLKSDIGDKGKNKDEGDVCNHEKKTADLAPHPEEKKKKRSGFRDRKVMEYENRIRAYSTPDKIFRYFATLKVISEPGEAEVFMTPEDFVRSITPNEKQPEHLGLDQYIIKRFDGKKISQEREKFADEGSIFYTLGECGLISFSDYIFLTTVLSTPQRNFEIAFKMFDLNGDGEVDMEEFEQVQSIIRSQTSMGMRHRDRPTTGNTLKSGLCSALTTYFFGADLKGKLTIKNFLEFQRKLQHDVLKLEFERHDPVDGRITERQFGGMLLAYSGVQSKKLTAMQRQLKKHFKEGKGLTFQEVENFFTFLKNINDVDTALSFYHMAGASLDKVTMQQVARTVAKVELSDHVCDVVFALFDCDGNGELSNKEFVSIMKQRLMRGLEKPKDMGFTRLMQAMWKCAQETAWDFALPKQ
UniProt Q9H425: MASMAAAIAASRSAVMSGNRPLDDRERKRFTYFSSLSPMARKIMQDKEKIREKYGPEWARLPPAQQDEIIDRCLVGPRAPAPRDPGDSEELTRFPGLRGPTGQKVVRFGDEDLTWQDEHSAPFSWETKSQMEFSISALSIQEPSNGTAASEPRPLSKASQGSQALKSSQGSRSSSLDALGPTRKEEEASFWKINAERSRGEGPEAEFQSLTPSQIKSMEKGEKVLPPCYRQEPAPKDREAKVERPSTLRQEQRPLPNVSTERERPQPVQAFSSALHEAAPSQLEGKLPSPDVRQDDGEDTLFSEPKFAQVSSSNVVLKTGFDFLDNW
UniProt Q6NW34: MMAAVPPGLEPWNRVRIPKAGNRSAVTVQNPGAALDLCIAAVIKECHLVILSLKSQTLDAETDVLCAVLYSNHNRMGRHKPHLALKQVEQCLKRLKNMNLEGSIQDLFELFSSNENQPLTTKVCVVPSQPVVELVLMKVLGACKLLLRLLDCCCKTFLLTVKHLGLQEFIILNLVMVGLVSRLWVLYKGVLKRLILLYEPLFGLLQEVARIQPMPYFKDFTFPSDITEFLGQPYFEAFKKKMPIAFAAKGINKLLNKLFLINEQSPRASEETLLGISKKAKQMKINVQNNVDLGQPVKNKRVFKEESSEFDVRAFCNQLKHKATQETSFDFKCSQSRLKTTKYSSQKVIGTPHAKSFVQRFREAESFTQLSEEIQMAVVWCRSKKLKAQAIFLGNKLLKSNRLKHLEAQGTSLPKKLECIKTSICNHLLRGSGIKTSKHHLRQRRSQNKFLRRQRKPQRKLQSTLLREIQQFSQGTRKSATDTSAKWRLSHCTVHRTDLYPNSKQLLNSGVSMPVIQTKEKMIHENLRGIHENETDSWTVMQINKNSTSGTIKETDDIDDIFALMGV
UniProt P16070: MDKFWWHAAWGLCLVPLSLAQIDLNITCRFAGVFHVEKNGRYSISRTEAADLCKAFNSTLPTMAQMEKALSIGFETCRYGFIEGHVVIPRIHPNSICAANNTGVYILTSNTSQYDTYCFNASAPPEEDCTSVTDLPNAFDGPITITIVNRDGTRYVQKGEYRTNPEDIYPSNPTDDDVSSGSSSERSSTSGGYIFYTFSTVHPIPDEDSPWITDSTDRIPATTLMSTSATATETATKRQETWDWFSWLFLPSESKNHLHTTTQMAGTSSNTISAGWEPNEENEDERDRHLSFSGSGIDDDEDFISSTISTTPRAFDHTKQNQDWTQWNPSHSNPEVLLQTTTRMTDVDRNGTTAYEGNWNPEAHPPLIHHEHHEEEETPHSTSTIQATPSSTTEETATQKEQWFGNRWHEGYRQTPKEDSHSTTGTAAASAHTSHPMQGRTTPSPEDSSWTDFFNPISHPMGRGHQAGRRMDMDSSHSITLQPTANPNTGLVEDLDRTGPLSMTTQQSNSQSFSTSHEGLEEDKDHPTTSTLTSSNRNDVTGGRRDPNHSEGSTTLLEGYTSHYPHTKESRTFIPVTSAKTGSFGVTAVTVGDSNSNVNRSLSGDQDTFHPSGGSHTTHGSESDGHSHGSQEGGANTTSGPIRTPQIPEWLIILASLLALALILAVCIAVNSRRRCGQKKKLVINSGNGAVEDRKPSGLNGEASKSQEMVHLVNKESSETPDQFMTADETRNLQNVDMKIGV
UniProt Q9HDC9: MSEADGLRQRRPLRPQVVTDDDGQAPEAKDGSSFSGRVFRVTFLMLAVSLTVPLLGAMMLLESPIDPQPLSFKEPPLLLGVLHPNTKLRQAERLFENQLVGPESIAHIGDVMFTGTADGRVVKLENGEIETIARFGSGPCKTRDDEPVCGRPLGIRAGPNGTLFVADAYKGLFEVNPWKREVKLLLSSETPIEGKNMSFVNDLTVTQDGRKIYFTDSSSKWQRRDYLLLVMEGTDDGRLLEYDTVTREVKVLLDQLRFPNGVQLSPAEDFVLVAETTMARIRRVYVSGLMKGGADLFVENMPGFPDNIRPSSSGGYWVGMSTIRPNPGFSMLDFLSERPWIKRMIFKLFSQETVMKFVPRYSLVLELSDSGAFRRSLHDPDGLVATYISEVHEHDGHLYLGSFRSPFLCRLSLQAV
UniProt Q9BUV8: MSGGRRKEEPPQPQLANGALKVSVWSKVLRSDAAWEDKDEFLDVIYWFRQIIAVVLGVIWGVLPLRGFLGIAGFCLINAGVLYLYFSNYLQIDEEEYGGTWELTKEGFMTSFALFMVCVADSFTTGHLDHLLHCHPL
UniProt P51946: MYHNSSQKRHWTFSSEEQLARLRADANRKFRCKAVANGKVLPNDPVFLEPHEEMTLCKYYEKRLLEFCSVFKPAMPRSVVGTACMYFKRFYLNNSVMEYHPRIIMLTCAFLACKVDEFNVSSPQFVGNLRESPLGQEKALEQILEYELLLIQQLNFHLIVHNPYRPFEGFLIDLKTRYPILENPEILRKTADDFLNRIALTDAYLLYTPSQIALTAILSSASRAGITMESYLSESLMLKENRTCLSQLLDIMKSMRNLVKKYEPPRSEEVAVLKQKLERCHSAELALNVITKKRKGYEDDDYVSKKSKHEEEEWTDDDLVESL
UniProt Q9NX38: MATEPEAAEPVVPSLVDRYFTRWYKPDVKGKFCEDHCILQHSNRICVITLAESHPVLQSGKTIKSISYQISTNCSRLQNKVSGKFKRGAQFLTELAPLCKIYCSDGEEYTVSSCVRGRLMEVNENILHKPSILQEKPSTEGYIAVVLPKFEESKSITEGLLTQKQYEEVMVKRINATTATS
UniProt Q9NWU2, whole entry: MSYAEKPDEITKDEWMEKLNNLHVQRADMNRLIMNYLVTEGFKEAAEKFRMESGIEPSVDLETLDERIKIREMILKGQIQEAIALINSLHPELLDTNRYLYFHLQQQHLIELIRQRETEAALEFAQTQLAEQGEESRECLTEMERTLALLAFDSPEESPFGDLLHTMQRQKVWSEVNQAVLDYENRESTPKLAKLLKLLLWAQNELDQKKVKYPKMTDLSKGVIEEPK
UniProt Q8N8R5: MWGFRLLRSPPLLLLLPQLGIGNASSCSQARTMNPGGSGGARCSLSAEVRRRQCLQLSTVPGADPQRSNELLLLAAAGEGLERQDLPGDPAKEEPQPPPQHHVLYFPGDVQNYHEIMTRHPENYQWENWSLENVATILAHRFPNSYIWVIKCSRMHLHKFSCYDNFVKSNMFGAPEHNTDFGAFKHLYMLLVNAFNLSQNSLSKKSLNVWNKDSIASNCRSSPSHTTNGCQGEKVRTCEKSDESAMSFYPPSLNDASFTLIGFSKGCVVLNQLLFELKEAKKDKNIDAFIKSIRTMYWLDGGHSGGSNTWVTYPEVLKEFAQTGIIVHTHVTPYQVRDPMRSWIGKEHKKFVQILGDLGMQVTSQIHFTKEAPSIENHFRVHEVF
UniProt Q9BU76: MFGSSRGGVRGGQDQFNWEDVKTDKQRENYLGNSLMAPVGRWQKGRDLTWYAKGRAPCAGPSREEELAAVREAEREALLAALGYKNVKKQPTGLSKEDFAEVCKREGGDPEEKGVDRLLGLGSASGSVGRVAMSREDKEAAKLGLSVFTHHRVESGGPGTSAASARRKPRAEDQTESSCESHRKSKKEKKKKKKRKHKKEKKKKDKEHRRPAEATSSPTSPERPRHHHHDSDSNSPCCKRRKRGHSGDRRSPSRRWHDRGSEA
UniProt Q8N954: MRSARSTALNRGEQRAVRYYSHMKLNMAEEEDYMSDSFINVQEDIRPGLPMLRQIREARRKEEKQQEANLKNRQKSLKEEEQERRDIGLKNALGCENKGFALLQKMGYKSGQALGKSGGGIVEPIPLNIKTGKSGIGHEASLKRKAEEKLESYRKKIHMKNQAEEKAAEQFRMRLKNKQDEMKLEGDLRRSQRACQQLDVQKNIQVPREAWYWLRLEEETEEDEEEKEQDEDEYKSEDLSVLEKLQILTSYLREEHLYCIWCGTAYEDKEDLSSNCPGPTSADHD
UniProt Q9GZT6: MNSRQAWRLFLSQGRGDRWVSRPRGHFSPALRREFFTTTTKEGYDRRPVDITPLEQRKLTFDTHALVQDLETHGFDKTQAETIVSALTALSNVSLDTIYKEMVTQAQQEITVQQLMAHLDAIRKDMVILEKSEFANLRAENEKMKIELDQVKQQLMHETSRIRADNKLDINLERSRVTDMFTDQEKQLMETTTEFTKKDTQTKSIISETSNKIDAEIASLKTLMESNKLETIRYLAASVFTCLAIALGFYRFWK
UniProt Q9P1Z2: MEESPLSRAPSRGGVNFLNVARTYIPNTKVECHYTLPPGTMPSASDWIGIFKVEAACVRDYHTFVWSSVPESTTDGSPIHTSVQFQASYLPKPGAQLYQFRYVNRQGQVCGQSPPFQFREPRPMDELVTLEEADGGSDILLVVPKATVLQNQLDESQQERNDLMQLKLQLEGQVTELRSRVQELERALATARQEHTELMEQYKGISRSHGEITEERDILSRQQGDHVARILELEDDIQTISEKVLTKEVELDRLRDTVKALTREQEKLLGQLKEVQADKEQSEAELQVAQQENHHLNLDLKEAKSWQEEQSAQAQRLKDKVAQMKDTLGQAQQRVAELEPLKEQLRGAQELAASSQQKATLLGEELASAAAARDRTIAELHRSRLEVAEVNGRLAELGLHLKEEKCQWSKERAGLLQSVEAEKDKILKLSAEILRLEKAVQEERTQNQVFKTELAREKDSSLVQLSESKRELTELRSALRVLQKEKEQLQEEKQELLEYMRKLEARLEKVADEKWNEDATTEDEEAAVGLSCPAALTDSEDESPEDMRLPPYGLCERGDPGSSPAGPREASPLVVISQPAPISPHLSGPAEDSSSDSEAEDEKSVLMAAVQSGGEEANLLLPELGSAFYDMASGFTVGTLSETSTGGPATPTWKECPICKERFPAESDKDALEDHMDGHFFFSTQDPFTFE

Compound: COc1ccc(Cn2ccc3cc(C)c(C(=O)NO)cc32)cc1
Assay: dose-dependent thermal stabilisation call (2D-TPP, DLPTP, 10% FDR) (binary (1 = stabilised)); higher = stabilised by the compound
Conditions: system: HL-60 intact cells; concentration range 0.04-10 µM
Experimental: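 2D thermal proteome profiling in intact HL-60 cells treated with BRD-3811 (0, 0.04, 0.29, 2, 10 uM) for 90 min at 37 C, then heated 3 min at one of 12 temperatures (42-63.9 C). Soluble protein was quantified by TMT10 MS. The value is the DLPTP call of the paper: dose-dependent thermal stabilisation over all temperatures at 10% FDR (F-test of a dose-response against a flat model); one experiment, one call per tested protein.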

| Target | dose-dependent thermal stabilisation call |
| --- | --- |
| C6ORF66 (UniProt Q9P032) | inactive: 0 |
| C4ORF8 (UniProt P78312) | inactive: 0 |
| C22ORF30 (UniProt Q5THK1) | inactive: 0 |
| CBARA1 (UniProt Q9BPX6) | inactive: 0 |
| C1ORF198 (UniProt Q9H425) | inactive: 0 |
| CBLL1 (UniProt Q75N03) | inactive: 0 |
| CASP3 (UniProt P42574) | inactive: 0 |
| C22ORF9 (UniProt Q6ICG6) | inactive: 0 |
| CAP1 (UniProt Q01518) | inactive: 0 |
| C1ORF149 (UniProt Q9HAF1) | inactive: 0 |
| C3ORF17 (UniProt Q6NW34) | inactive: 0 |
| C4ORF41 (UniProt Q7Z392) | inactive: 0 |
| C5ORF33 (UniProt Q4G0N4) | inactive: 0 |
| CD44 (UniProt P16070) | inactive: 0 |
| CCDC52 (UniProt Q8N0Z3) | inactive: 0 |
| C2ORF43 (UniProt Q9H6V9) | inactive: 0 |
| CAPZB (UniProt P47756) | inactive: 0 |
| C1ORF85 (UniProt Q8WWB7) | inactive: 0 |
| C20ORF3 (UniProt Q9HDC9) | inactive: 0 |
| C20ORF4 (UniProt Q9Y312) | inactive: 0 |

Random excerpt: 3 entries already listed

| Target | dose-dependent thermal stabilisation call |
| --- | --- |
| C1ORF198 (UniProt Q9H425) | inactive: 0 |
| C6ORF66 (UniProt Q9P032) | inactive: 0 |
| C5ORF33 (UniProt Q4G0N4) | inactive: 0 |

Continued.

| Target | dose-dependent thermal stabilisation call |
| --- | --- |
| CCNDBP1 (UniProt O95273) | inactive: 0 |
| CCT3 (UniProt P49368) | inactive: 0 |
| C1ORF43 (UniProt Q9BWL3) | inactive: 0 |
| C20ORF24 (UniProt Q9BUV8) | inactive: 0 |
| C9ORF91 (UniProt Q5VZI3) | inactive: 0 |
| C9ORF41 (UniProt Q8N4J0) | inactive: 0 |
| C1ORF52 (UniProt Q8N6N3) | inactive: 0 |
| CA8 (UniProt P35219) | inactive: 0 |
| C8ORF33 (UniProt Q9H7E9) | inactive: 0 |
| CCNH (UniProt P51946) | inactive: 0 |
| C9ORF6 (UniProt Q9NX38) | inactive: 0 |
| CAD (UniProt P27708) | inactive: 0 |
| CBX1 (UniProt P83916) | inactive: 0 |
| C20ORF11 (UniProt Q9NWU2) | inactive: 0 |
| C2ORF69 (UniProt Q8N8R5) | inactive: 0 |
| C1ORF35 (UniProt Q9BU76) | inactive: 0 |
| CCDC75 (UniProt Q8N954) | inactive: 0 |
| CCDC90B (UniProt Q9GZT6) | inactive: 0 |
| CALCOCO1 (UniProt Q9P1Z2) | inactive: 0 |
| C9ORF82 (UniProt Q9H8G2) | inactive: 0 |
